No constants are given. Whether binding was seen depends on the method and setting. Binding seen in cells or lysates may run through a third protein. Some entries that bind do so weakly or less than the wild type. Sequences can lack the tags named with a protein. Values belong to the molecule of their own block, whether it stands above or below them.
Assays:
[1] = molecular target: T1, mycPex19 (mouse Pex19 cloned into pRK5-myc vector) (mouse) (UniProt Q8VCI5); experiment: co-IP
T1 sequence: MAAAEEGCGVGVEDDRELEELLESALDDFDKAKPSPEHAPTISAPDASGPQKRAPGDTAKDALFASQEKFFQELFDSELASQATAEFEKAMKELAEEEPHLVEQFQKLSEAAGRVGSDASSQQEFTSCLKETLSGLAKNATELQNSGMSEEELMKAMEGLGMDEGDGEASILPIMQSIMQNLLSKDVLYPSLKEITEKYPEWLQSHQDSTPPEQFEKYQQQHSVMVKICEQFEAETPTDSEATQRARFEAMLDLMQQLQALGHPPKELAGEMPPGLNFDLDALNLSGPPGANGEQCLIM

Amino acid sequences for entries named in this document (tags omitted).
UniProt Q8IXI2: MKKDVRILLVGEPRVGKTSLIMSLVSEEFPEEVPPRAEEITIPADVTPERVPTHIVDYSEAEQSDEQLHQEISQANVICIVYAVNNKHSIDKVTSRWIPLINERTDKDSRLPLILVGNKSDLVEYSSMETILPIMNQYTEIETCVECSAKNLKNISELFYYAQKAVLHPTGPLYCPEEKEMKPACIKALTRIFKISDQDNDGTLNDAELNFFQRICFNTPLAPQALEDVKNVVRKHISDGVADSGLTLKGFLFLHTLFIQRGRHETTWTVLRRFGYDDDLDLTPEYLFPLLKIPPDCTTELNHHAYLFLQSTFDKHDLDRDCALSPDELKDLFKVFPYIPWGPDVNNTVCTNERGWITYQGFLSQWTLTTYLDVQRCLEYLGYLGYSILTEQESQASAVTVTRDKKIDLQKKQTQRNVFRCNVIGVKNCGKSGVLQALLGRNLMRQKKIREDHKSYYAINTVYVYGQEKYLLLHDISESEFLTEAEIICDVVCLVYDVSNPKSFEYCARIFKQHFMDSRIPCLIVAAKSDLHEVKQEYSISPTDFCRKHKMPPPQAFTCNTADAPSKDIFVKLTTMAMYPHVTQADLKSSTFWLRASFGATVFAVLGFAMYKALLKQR

[2] = molecular target: GFPMiro1 (full-length GFP-tagged Miro1) (UniProt Q8IXI2); experiment: co-IP

binding [1]: binds
Molecule: full-length Miro1 (mycMiro1) (from UniProt Q8IXI2 1-618)

binding [2]: binds
B1: mycPex19 (mouse Pex19 cloned into pRK5-myc vector) (protein, UniProt Q8VCI5-1 1-299)
chain: T1 sequence
